For assay [1], the target named is T1, GST-BEX1 (brain-expressed X-linked protein 1 fused to glutathione-S-transferase) (UniProt Q9R224).
T1 sequence: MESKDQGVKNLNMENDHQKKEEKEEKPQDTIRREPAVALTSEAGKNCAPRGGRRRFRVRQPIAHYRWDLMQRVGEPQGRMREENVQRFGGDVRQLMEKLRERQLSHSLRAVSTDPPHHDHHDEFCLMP
Nature of the assay: pull-down; GST-BEX1 incubated with cardiac extracts of WT mouse hearts, without micrococcal nuclease; Western blot of the partners; only the target purified. On the technique in general: Immunoblotting shows a protein as a band on a membrane.

Assay [2] deals with T2, BEX1 (wild-type, untagged, from BEX1 transgenic mouse hearts) (UniProt Q9R224).
T2 sequence: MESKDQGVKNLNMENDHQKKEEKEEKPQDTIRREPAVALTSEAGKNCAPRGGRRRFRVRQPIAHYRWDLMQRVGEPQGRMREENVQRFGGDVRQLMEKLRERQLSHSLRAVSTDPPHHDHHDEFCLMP
Nature of the assay: co-IP; BEX1 immunoprecipitated with anti-BEX1 (IgG as control) from BEX1 transgenic mouse hearts; Western blot for the endogenous partners.

Assay [3] deals with PHD-containing factor 11 (PHF11), mouse heart (mouse (endogenous in mouse heart)). Nature of the assay: co-IP; reverse: endogenous DDX1, DDX3x, EPRS, PHF11 or hnRNPH1 immunoprecipitated with specific antibodies (IgG as control) from a BEX1 transgenic mouse heart; Western blot for BEX1.

No constants are given. Whether binding was seen depends on the method and setting. In cells and extracts the contact can be indirect. Binding can be weak; no strength is given. Where a sequence is shown, tags or fusion partners need not be part of it.

With “PHD-containing factor 11 (PHF11), mouse heart”, the binding entry in assay [1] and in assay [2] was “binds” in each case.

B1: BEX1 (wild-type, untagged, from BEX1 transgenic mouse hearts) (protein, UniProt Q9R224 1-128)
chain: MESKDQGVKNLNMENDHQKKEEKEEKPQDTIRREPAVALTSEAGKNCAPRGGRRRFRVRQPIAHYRWDLMQRVGEPQGRMREENVQRFGGDVRQLMEKLRERQLSHSLRAVSTDPPHHDHHDEFCLMP
As to B1, the binding entry in assay [3] is “binds”.

Source of the values: article PMC5709413.
